Like-named read-outs stand apart in the source and are kept apart here.
Test system: M. mycetomatis MM55
Assay: IC50 determination, 2-fold dilution series 16 to 0.03125 μM
Assay type: cell-based
Conditions: Madurella mycetomatis

IC50 (MM55, replicate 1, read-out: IC50 1 um): 220 nM
IC50 (MM55, replicate 2, read-out: IC50 2 um): 220 nM
IC50 (MM55, replicate 3, read-out: IC50 3 um): 250 nM
SMILES: Clc1ccc(COC(Cn2ccnc2)c2ccc(Cl)cc2Cl)c(Cl)c1 (stereo not drawn) [MMV002722]
